{"source": "patent US20090191584", "about": "“Transcriptional repression of sodium-iodide symporter in thyroid carcinoma” (UNIVERSITY OF KENTUCKY RESEARCH FOUNDATION, published 2009)", "key": {"[1]": {"tested_on": "NIS-repressor complex (KAK-1 nuclear factors, contains PARP-1) (Homo sapiens)", "test": "EMSA", "conditions": "protein in an extract, protein details: KAK-1 nuclear extract, label: 32P"}, "[2]": {"tested_on": "NIS-repressor complex (NPA'87 nuclear factors) (Homo sapiens)", "test": "EMSA", "conditions": "protein in an extract; protein details: NPA'87 nuclear extract; label: 32P"}, "[3]": {"tested_on": "NIS-repressor complex (KAK-1 nuclear factors, contains PARP-1) (Homo sapiens)", "test": "competition with a labelled probe", "conditions": "protein in an extract, protein details: KAK-1 nuclear extract"}, "[4]": {"tested_on": "NIS-repressor complex (KAK-1 nuclear factors, contains PARP-1) (Homo sapiens)", "test": "binding assay", "conditions": "UV crosslinking of 32P Comp-1, three specific regions on SDS-PAGE; protein in an extract; protein details: KAK-1 nuclear extract"}, "[5]": {"conditions": "60x cold competed effectively, variant of Comp-1 (-653 to -615)"}, "[6]": {"conditions": "60x cold failed to compete, variant of Comp-1 (-653 to -615)"}}, "note": "Construct, isoform or probe ends are uncertain for at least one entry. Where cells or extracts were used, other partners may take part. For some of these results: A negative result means that nothing was seen under these conditions."}
{"sequence": "AAGCAGGCTGTGCAGGCTTGGATAGTGACATGCCCTTTTTGAGCCTCAATTTCCCCACCTGTCAACAGCAGACAGTGACAGCTGTGATCAGGGGATCACAGTGCATGGGGATGGGTGTGT (double strand) [Probe A (-684 to -565 hNIS)]", "values": [{"measurement": "binding result", "setting": "[1]; three specific bands, dose-related, competed by 20x cold probe, reduced about 50% by extra 0.2 M KCl", "result": "binds"}, {"measurement": "binding result", "setting": "[2]", "result": "binds"}]}
{"sequence": "AGAGATTGCCTGACGTCAGAGAGCTAG (double strand) [CREB oligo]", "values": [{"measurement": "binding result", "setting": "[3]; 90x cold", "result": "no binding"}]}
{"sequence": "AGCCTCAATTTCCCCACCTGTCAA (double strand) [Comp-1.3 (-643 to -620)]", "values": [{"measurement": "binding result", "setting": "[3]; [5]", "result": "binds"}]}
{"sequence": "AGCTGTGATCAGGGGATCACAGTGCATGGGGATGGGTGTGTGCATGGGGATGGAGGGGCATTTGGGAGCCCTCCCCGATACCACCCCCTGCAGCCACCCAGATAGCCTGTCCTGGCCTGTCTGTCCCAGTCCAGGGCTGAAAGGGTGCGGGTCCTGCCCGCCCCTAGGTCTGGAGGCGGAGTCGCGGTGACCCGGGAGCCCAATAAATCTGCAACCCACAATCACGAGCTGCTCCCGTAAGCCCCAAGGCGACCTCCA (double strand) [Probe D / competitor probe-2 (-605 to -348)]", "values": [{"measurement": "binding result", "setting": "[3]; 20x cold failed to compete", "result": "no binding"}]}
{"sequence": "ATTCGATCGGGGCGGGGCGAGC (double strand) [Sp-1 oligo]", "values": [{"measurement": "binding result", "setting": "[3]; 90x cold", "result": "no binding"}]}
{"sequence": "CAATTTCCCCACCTGTCAACAGCA / TGCTGTTGACAGGTGGGGGAAATTG [Comp-1.4 (-638 to -615)]", "values": [{"measurement": "binding result", "setting": "[3]; [6]", "result": "no binding"}]}
{"sequence": "CACTGCCCAGTCAAGTGGTTCTTGA (double strand) [TTF-1/Pax-8 oligo]", "values": [{"measurement": "binding result", "setting": "[3]; 90x cold", "result": "no binding"}]}
{"sequence": "CAGCTGCTCTATGAAGTGTGAAGAA (double strand) [Pax-8 oligo]", "values": [{"measurement": "binding result", "setting": "[3]; 90x cold", "result": "no binding"}]}
{"sequence": "CCCCGATACCACCCCCTGCAGCCACCCAGATAGCCTGTCCTGGCCTGTCTGTCCCAGTCCAGGGCTGAAAGGGTGCGGGTCCTGCCCGCCCCTAGGTCTGGAGGCGGAGTCGCGGTGACCCGGGAGCCCAATAAATCTGCAACCCACAATCACGAGCTGCTCCCGTAAGCCCCAAGGCGACCTCCA (double strand) [Probe B (-533 to -348 hNIS)]", "values": [{"measurement": "binding result", "setting": "[1]; no specific shift", "result": "no binding"}]}
{"sequence": "CGCTTGATGAGTCAGCCGGAA (double strand) [AP-1 (c-jun) oligo]", "values": [{"measurement": "binding result", "setting": "[3]; 90x cold", "result": "no binding"}]}
{"sequence": "GAGGGAGTTCCTGTGACTAGCAGAGAAAACAAAGTGAGCCAC (double strand) [TTF-2 oligo]", "values": [{"measurement": "binding result", "setting": "[3]; 90x cold", "result": "no binding"}]}
{"sequence": "GATCGAACTGACCGCCCGCGGCCCGT (double strand) [AP-2 oligo]", "values": [{"measurement": "binding result", "setting": "[3]; 90x cold", "result": "no binding"}]}
{"sequence": "GCCCTTTTTGAGCCTCAATTTCCC (double strand) [Comp-1.1 (-653 to -630)]", "values": [{"measurement": "binding result", "setting": "[3]; [6]", "result": "no binding"}]}
{"sequence": "GCCCTTTTTGAGCCTCAATTTCCCCACCTGTCAACAGCA (double strand) [Comp-1 (-653 to -615)]", "values": [{"measurement": "binding result", "setting": "[4]", "result": "binds"}, {"measurement": "binding result", "setting": "[3]; 60x cold completely erased probe A shift", "result": "binds"}]}
{"sequence": "GTGACATGCCCTTTTTGAGCCTCAATTTCCCCAC (double strand) [Comp-0.9 (-660 to -627)]", "values": [{"measurement": "binding result", "setting": "[3]; [6]", "result": "no binding"}]}
{"sequence": "TCCCCACCTGTCAACAGCAGACAGTGACAGCTGTGATCA (double strand) [Comp-2 (-633 to -595)]", "values": [{"measurement": "binding result", "setting": "[3]; 60x and 90x cold failed to compete", "result": "no binding"}]}
{"sequence": "TTTTGAGCCTCAATTTCCCCACCT (double strand) [Comp-1.2 (-648 to -625)]", "values": [{"measurement": "binding result", "setting": "[3]; [5]", "result": "binds"}]}
